By UniProt entry, the sequences of proteins in these tests, tags left out.
UniProt P02340: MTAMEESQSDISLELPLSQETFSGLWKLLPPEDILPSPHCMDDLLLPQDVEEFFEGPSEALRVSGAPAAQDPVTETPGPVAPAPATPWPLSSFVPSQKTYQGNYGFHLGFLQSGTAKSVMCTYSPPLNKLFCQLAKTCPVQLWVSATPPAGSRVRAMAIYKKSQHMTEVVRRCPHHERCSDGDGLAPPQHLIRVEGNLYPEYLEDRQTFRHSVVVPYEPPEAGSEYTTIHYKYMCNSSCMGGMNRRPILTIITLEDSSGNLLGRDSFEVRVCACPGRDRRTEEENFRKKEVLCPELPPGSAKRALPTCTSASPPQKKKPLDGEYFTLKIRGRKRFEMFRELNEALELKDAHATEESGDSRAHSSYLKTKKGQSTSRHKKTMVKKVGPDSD

In article PMC10352137, “Readout of histone methylation by Trim24 locally restricts chromatin opening by p53” (Nature Structural & Molecular Biology, 2023):

Biological target: V5- and dTAG-tagged p53 (dp53 allele) (mouse) (UniProt P02340)
Assay: affinity purification with mass spectrometry; anti-V5 magnetic beads on whole-cell extracts of dp53 mES cells cross-linked with 0.1% formaldehyde; lysis in 1% SDS with benzonase, washes with 500 mM NaCl, 1% Triton X-100, 0.1% SDS; untreated and doxorubicin-activated cells, against p53-degraded cells (dTAG13) as mock

B1: Trim24 (endogenous, mES cells) (protein, UniProt Q64127 1-1051)
chain: MEVAVEKAAAAAAPAGGPAAAAPSGENEAESRQGPDSESGGEASRLNLLDTCAVCHQNIQSRVPKLLPCLHSFCQRCLPAPQRYLMLTAPALGSAETPPPAPAPAPAPGSPAGGPSPFATQVGVIRCPVCSQECAERHIIDNFFVKDTTEVPSSTVEKSNQVCTSCEDNAEANGFCVECVEWLCKTCIRAHQRVKFTKDHTVRQKEEVSPEAVGVTSQRPVFCPFHKKEQLKLYCETCDKLTCRDCQLLEHKEHRYQFIEEAFQNQKVIIDTLITKLMEKTKYIKYTGNQIQNRIIEINQNQKQVEQDIKVAIFTLMVEINKKGKALLHQLESLAKDHRMKLMQQQQEVAGLSKQLEHVMHFSKWAVSSGSSTALLYSKRLITYRLRHLLRARCDASPVTNTTIQFHCDPSFWAQNIINLGSLVIEDKESQPQMPKQNPVVEQSSQPPGGLPSNQLSKFPTQISLAQLRLQHIQQQVMAQRQQVQRRPAPVGLPNPRMQGPIQQPSISHQHPPPRLINFQNHSPKPNGPVLPPYPQQLRYSPSQNVPRQTTIKPNPLQMAFLAQQAIKQWQISSVQAPPTTASSSSSTPSSPTITSAAGYDGKAFSSPMIDLSAPVGGSYNLPSLPDIDCSSTIMLDNIARKDTGVDHAQPRPPSNRTVQSPNSSVPSPGLAGPVTMTSVHPPIRSPSASSVGSRGSSGSSSKPAGADSTHKVPVVMLEPIRIKQENSGPPENYDFPVVIVKQESDEESRPQNTNYPRSILTSLLLNSSQSSASEETVLRSDAPDSTGDQPGLHQENSSNGKSEWSDASQKSPVHVGETRKEDDPNEDWCAVCQNGGELLCCEKCPKVFHLTCHVPTLTNFPSGEWICTFCRDLSKPEVDYDCDVPSHHSEKRKSEGLTKLTPIDKRKCERLLLFLYCHEMSLAFQDPVPLTVPDYYKIIKNPMDLSTIKKRLQEDYCMYTKPEDFVADFRLIFQNCAEFNEPDSEVANAGIKLESYFEELLKNLYPEKRFPKVEFRHEAEDCKFSDDSDDDFVQPRKKRLKSTEDRQLLK
binding: binds

No constants are given. Whether binding was seen depends on the method and setting. Binding seen in cells or lysates may run through a third protein. These calls come from enrichment with a bait or labelling near it, and not all partners need be listed.
